For some assays here: For expression read-outs the peptide stands for its source gene, whose mRNA was measured; the gene is not named for every peptide.
Key:
Parameters in all cases: species or system human
[1] = test system: HLA-A*24 molecules of primary tumors; assay: Identification and relative LC-MS quantitation of HLA-A*24 tumor-associated peptides presented on tissue samples (XPRESIDENT presentation profiles); details: for ENTITIES: Table 9A: selected HLA-A*24-binding tumor-associated peptides, cancer entities on which the peptide was found presented; for Peptide Presentation on cancer entities: Table 9B: selected HLA-A*24 peptides, presentation on additional cancer entities
[2] = test system: source genes of selected peptides; assay: Expression profiling of source genes by in-house RNAseq, tumor vs normal tissues (target coverage); details: share of tumors with more than 1.5-fold higher expression than highest relevant normal tissue, in-house RNASeq
[3] = test system: source genes of selected peptides; assay: Target coverage of source genes in tumor entities based on TCGA Research Network data; details: over-expressed = more than 2-fold above the highest 75% percentile of normal organs

| Substance | ENTITIES [1] | further results |
| --- | --- | --- |
| 96 (YYTQYSQTI; listed as Homo sapiens) [compound 96] | HCC, NSCLC, GC, GB |  |
| 97 (TYTFLKETF; listed as Homo sapiens) [compound 97] | PCA, HCC, NSCLC, GB |  |
| 98 (VFPRLHNVLF; listed as Homo sapiens) [compound 98] | HCC, NSCLC, GC |  |
| 99 (QYILAVPVL; listed as Homo sapiens) [compound 99] | NSCLC, GC, GB, PCA |  |
| 101 (IYIPVLPPHL; listed as Homo sapiens) [compound 101] | HCC, NSCLC |  |
| 102 (VYPFENFEF; listed as Homo sapiens) [compound 102] | GC, NSCLC |  |
| 103 (NYIPVKNGKQF; listed as Homo sapiens) [compound 103] | PCA, HCC, NSCLC, GB |  |
| 104 (SYLTWHQQI; listed as Homo sapiens) [compound 104] | PCA, HCC, NSCLC |  |
| 107 (KYFPYLVVI; listed as Homo sapiens) [compound 107] | HCC, NSCLC, GC |  |
| 108 (PYLVVIHTL; listed as Homo sapiens) [compound 108] |  | Peptide Presentation on cancer entities [1]: NSCLC |
| 109 (LFITGGQFF; listed as Homo sapiens) [compound 109] | HCC, NSCLC, GC |  |
| 111 (VYVQILQKL; listed as Homo sapiens) [compound 111] | GC, HCC, NSCLC |  |
| 112 (IYNFVESKL; listed as Homo sapiens) [compound 112] | NSCLC, GC |  |
| 114 (QYLDGTWSL; listed as Homo sapiens) [compound 114] | NSCLC, GC, GB |  |
| 115 (RYLNKSFVL; listed as Homo sapiens) [compound 115] | NSCLC, GC, GB, PCA, HCC |  |
| 116 (AYVIAVHLF; listed as Homo sapiens) [compound 116] | GB, PCA, HCC, NSCLC |  |
| 117 (IYLSDLTYI; listed as Homo sapiens) [compound 117] | HCC, NSCLC, GC, PCA |  |
| 118 (KYLNSVQYI; listed as Homo sapiens) [compound 118] | HCC, NSCLC, GC, GB, PCA |  |
| 119 (VYRVYVTTF; listed as Homo sapiens) [compound 119] | NSCLC, GC |  |
| 120 (GYIEHFSLW; listed as Homo sapiens) [compound 120] | HCC, NSCLC, GC |  |
| 121 (RYGLPAAWSTF; listed as Homo sapiens) [compound 121] | HCC, NSCLC, GC |  |
| 122 (EYQARIPEF; listed as Homo sapiens) [compound 122] | NSCLC, GC, GB, PCA, HCC |  |

| Substance | ENTITIES [1] | further results |
| --- | --- | --- |
| 126 (PYDPALGSPSRLF; listed as Homo sapiens) [compound 126] | NSCLC, GC, PCA, HCC |  |
| 127 (QYFTGNPLF; listed as Homo sapiens) [compound 127] | NSCLC, GC, GB, RCC, PCA |  |
| 131 (EYLDRIGQLFF; listed as Homo sapiens) [compound 131] | NSCLC, GC, RCC, GB, PCA, HCC |  |
| 132 (RYPALFPVL; listed as Homo sapiens) [compound 132] | HCC, NSCLC, GC, GB, PCA | Peptide Presentation on cancer entities [1]: RCC |
| 133 (KYLEDMKTYF; listed as Homo sapiens) [compound 133] | HCC, NSCLC, GC, GB |  |
| 134 (AYIPTPIYF; listed as Homo sapiens) [compound 134] | PCA, NSCLC, GB |  |
| 135 (VYEAMVPLF; listed as Homo sapiens) [compound 135] | GC, NSCLC | Peptide Presentation on cancer entities [1]: HCC |
| 137 (EYLHNCSYF; listed as Homo sapiens) [compound 137] | GC, PCA, HCC, NSCLC |  |
| 138 (VYNAVSTSF; listed as Homo sapiens) [compound 138] | NSCLC, GC |  |
| 139 (IFGIFPNQF; listed as Homo sapiens) [compound 139] | PCA, NSCLC |  |
| 140 (RYLINSYDF; listed as Homo sapiens) [compound 140] |  | Peptide Presentation on cancer entities [1]: NSCLC |
| 142 (VYVDDIYVI; listed as Homo sapiens) [compound 142] | NSCLC, GC |  |
| 143 (KYIFQLNEI; listed as Homo sapiens) [compound 143] | GB, NSCLC |  |
| 146 (NYYERIHAL; listed as Homo sapiens) [compound 146] |  | Peptide Presentation on cancer entities [1]: NSCLC |
| 147 (LYLAFPLAF; listed as Homo sapiens) [compound 147] | NSCLC, GC, PCA, HCC |  |
| 148 (SYGTVSQIF; listed as Homo sapiens) [compound 148] | PCA, HCC, NSCLC, GC, GB | Peptide Presentation on cancer entities [1]: CRC |
| 149 (SYGTVSQI; listed as Homo sapiens) [compound 149] | HCC, NSCLC, GB |  |
| 150 (IYITRQFVQF; listed as Homo sapiens) [compound 150] | PCA, HCC, NSCLC, GB |  |
| 151 (AYISGLDVF; listed as Homo sapiens) [compound 151] | HCC, NSCLC, PCA |  |
| 152 (KFFDDLGDELLF; listed as Homo sapiens) [compound 152] |  | Peptide Presentation on cancer entities [1]: NSCLC |
| 153 (VYVPFGGKSMITF; listed as Homo sapiens) [compound 153] | NSCLC |  |
| 154 (VYGVPTPHF; listed as Homo sapiens) [compound 154] | GB, NSCLC |  |

| Substance | ENTITIES [1] | further results |
| --- | --- | --- |
| 155 (IYKWITDNF; listed as Homo sapiens) [compound 155] | HCC, NSCLC, GC, GB | Peptide Presentation on cancer entities [1]: PCA |
| 156 (YYMELTKLLL; listed as Homo sapiens) [compound 156] | NSCLC, GC, HCC |  |
| 157 (DYIPASGFALF; listed as Homo sapiens) [compound 157] | NSCLC, GB |  |
| 158 (IYEETRGVLKVF; listed as Homo sapiens) [compound 158] | HCC, NSCLC, GC |  |
| 159 (IYEETRGVL; listed as Homo sapiens) [compound 159] | HCC, NSCLC |  |
| 160 (RYGDGGSSF; listed as Homo sapiens) [compound 160] | PCA, NSCLC, GC |  |
| 163 (RYLTISNLQF; listed as Homo sapiens) [compound 163] | NSCLC |  |
| 165 (EYFTPLLSGQF; listed as Homo sapiens) [compound 165] | NSCLC |  |
| 166 (FYTLPFHLI; listed as Homo sapiens) [compound 166] | HCC, NSCLC |  |
| 168 (RYLEAALRL; listed as Homo sapiens) [compound 168] | NSCLC, GC, GB, PCA, HCC |  |
| 169 (NYITGKGDVF; listed as Homo sapiens) [compound 169] | NSCLC, PCA |  |
| 170 (QYPFHVPLL; listed as Homo sapiens) [compound 170] | GC, PCA, HCC, NSCLC |  |
| 171 (NYEDHFPLL; listed as Homo sapiens) [compound 171] |  | Peptide Presentation on cancer entities [1]: NSCLC |
| 175 (LYSPVPFTL; listed as Homo sapiens) [compound 175] | GB, NSCLC |  |
| 176 (FYINGQYQF; listed as Homo sapiens) [compound 176] | GB, PCA, HCC, NSCLC, GC |  |
| 177 (VYFKAGLDVF; listed as Homo sapiens) [compound 177] | PCA, NSCLC |  |
| 178 (NYSSAVQKF; listed as Homo sapiens) [compound 178] | PCA, HCC, NSCLC, GB |  |
| 179 (TYIPVGLGRLL; listed as Homo sapiens) [compound 179] | NSCLC, GC |  |
| 239: peptide found in LRBA (gene looked up) (VYAIFRILL; listed as Homo sapiens) [compound 239] |  | Target coverage, over-expression of source gene, AML ([2]; AML (N = 7)): I (<19% over-expression = I); Target coverage, over-expression of source gene, BRCA ([2]; BRCA (N = 10)): II (20-49% = II); Target coverage, over-expression of source gene, CLL ([2]; CLL (N = 10)): I (<19% over-expression = I); Target coverage, over-expression of source gene, CRC ([2]; CRC (N = 20)): I (<19% over-expression = I); Target coverage, over-expression of source gene, GB ([2]; GB (N = 24)): I (<19% over-expression = I); Target coverage, over-expression of source gene, HCC ([2]; HCC (N = 15)): I (<19% over-expression = I); Target coverage, over-expression of source gene, OC ([2]; OC (N = 12)): I (<19% over-expression = I); Target coverage, over-expression of source gene, OSCAR ([2]; OSCAR (N = 11)): I (<19% over-expression = I); Target coverage, over-expression of source gene, PC ([2]; PC (N = 26)): I (<19% over-expression = I); Target coverage, over-expression of source gene, RCC ([2]; RCC (N = 10)): I (<19% over-expression = I); Target coverage, over-expression of source gene, SCLC ([2]; SCLC (N = 10)): II (20-49% = II); Target coverage, over-expression of source gene, pNSCLC ([2]; pNSCLC (N = 11)): I (<19% over-expression = I) |
| 396: peptide found in GRIK3 (gene looked up) (YYHFIFTTL; listed as Homo sapiens) [compound 396] |  | Target coverage, over-expression category of source gene, LGG (N = 534) ([3]; Lower grade glioma): A (>=50% of tumors above the cutoff); Target coverage, over-expression category of source gene, PCPG (N = 184) ([3]; Pheochromocytoma and paraganglioma): B (>=20% of tumors above the cutoff, but <50%) |
